Results published in PMC9668335.
These are yes or no findings as the source states them, for the method shown. In cells and extracts the contact can be indirect. Where a sequence is shown, tags or fusion partners need not be part of it.

The chains behind the UniProt entries cited, without tags or fusion partners.
UniProt Q96RK0: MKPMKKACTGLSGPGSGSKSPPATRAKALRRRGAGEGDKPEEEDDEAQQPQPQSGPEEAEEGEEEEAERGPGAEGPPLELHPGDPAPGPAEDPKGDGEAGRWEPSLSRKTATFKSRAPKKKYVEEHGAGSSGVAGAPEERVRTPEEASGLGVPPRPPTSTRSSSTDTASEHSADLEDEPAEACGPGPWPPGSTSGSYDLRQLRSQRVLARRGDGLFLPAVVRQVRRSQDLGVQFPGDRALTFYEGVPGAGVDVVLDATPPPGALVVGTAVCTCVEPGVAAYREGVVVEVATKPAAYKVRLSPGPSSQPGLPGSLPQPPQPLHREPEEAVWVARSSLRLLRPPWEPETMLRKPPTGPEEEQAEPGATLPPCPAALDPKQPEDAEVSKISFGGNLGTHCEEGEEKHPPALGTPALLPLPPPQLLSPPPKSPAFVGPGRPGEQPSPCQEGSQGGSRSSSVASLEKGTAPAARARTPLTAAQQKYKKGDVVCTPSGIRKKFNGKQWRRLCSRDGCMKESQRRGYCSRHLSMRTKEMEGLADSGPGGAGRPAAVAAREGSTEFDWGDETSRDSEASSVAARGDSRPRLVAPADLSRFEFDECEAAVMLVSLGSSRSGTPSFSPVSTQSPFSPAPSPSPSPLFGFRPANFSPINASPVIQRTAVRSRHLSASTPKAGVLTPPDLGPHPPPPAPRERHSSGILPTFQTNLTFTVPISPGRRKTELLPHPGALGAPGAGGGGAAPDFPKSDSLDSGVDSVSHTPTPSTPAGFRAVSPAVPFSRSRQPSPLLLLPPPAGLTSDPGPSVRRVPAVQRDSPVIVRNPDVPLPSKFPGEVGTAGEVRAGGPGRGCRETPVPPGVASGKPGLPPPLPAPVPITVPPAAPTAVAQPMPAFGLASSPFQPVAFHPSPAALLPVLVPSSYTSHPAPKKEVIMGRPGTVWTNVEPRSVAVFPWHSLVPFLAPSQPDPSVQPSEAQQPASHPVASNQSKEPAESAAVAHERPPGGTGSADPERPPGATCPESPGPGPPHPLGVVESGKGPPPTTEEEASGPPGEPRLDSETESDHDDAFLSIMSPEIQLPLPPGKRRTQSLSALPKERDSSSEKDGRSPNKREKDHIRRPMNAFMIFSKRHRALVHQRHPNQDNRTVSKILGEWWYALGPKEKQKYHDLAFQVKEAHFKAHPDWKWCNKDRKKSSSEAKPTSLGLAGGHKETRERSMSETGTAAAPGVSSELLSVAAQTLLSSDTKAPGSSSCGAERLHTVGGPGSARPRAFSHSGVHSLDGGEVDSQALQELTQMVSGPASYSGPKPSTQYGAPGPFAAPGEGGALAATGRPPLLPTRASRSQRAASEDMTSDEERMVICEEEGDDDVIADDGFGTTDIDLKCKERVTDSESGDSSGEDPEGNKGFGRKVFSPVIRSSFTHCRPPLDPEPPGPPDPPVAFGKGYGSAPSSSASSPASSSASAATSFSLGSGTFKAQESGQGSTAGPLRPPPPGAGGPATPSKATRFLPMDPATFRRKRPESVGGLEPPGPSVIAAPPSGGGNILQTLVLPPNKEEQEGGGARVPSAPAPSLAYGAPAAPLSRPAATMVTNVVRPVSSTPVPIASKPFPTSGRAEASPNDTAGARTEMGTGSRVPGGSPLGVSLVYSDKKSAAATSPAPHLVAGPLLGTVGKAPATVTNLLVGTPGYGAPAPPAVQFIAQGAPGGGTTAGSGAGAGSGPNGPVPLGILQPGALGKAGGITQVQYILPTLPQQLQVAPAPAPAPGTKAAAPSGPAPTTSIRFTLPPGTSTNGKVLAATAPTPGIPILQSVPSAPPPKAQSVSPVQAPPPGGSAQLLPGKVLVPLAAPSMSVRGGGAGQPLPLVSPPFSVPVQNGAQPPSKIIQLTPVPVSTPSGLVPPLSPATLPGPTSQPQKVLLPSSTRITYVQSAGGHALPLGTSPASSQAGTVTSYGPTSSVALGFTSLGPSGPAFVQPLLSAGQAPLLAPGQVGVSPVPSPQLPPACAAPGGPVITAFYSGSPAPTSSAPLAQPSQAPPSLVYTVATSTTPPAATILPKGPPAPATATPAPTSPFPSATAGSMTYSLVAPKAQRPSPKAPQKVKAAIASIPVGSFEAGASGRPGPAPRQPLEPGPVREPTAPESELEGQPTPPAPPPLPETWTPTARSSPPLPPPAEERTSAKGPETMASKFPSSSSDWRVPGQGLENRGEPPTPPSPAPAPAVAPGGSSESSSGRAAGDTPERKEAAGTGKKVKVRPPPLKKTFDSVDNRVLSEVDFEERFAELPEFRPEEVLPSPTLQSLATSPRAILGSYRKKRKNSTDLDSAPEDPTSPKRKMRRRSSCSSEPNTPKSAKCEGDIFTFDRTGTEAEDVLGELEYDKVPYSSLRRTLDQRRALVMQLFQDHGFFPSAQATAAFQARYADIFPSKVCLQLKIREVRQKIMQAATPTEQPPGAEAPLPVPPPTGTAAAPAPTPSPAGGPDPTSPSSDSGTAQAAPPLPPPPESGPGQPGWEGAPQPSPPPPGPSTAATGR

Target: T1, GFP-tagged ETS2 repressor factor (ERF) (human) (UniProt P50548)
T1 sequence: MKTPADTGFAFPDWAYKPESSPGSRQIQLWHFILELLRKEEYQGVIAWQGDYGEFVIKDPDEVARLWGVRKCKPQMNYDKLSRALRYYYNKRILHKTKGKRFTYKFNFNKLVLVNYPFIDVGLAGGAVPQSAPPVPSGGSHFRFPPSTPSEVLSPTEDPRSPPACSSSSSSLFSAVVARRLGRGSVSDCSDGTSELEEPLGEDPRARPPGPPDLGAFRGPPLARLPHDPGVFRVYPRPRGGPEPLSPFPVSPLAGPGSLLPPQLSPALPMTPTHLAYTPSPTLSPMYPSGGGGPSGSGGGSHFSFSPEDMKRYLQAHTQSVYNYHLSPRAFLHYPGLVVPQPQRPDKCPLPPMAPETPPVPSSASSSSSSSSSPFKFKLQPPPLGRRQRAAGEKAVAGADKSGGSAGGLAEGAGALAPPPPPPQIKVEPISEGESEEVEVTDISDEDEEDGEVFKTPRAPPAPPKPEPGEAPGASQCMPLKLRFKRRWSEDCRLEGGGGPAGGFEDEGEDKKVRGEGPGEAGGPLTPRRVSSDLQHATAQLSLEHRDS
Test: co-IP; 293T cells transfected with GFP-tagged ERF for 48 hr; lysate incubated with anti-GFP magnetic beads (or IgG on Dynabeads Protein G) overnight at 4 °C; blotted for GFP or CIC

Q: For “Capicua (CIC), detected by CIC antibody in 293T lysate (from UniProt Q96RK0 1-2517)”, which binding is on record?
A: no binding
